The list shows a part of the results. Repeats are few or missing, and single values can be far off.
Biological target: T1, NSUN6 (UniProt Q8TEA1)
T1 sequence: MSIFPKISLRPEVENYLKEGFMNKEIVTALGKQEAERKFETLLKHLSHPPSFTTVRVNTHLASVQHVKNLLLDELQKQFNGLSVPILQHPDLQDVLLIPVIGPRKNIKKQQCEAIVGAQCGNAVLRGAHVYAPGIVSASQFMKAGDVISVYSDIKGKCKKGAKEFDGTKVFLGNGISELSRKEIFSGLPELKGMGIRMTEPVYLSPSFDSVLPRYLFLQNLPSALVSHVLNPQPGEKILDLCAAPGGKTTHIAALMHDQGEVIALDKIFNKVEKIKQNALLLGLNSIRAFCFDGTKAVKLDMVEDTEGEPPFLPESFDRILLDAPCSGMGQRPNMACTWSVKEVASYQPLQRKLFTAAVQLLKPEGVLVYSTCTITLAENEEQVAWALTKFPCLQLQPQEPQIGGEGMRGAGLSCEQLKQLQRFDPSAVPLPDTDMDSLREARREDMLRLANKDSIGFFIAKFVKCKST
Assay: m5C methylation level at the target C (C/(C+U) bisulfite reads) (fraction); higher = more methylation by NSUN6; extreme values may be limits of the assay
Conditions: HEK293T (wild-type)
Procedure: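 High-throughput mutagenesis reporter. About 140 bp oligo-pool variants of four natural Type II m5C substrates (substrate #1 chr15:91425541; #2 RAB15 3'UTR chr14:65413377; #3 SULT2A1 5'UTR chr19:48389569; #4 NAAA CDS chr4:76857361) were cloned as 3'UTR elements of psiCHECK-2 luciferase and transfected into wild-type HEK293T cells. Total RNA was taken 48 h later and m5C level was measured by targeted bisulfite sequencing as C/(C+U) reads at the m5C site (one library).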

[1] = parent substrate: substrate #1 (main figure)

Sequence | m5C methylation level at the target C [1] | m5C methylation level at the target C (parent substrate: substrate #2) | m5C methylation level at the target C (parent substrate: substrate #3) | m5C methylation level at the target C (parent substrate: substrate #4)
CCAACU | 0.00468 | 0 | 0.0024 | 0
CCAGGC | 0.000681 | 0.00081 | 0.00042 | 0
GCGACU | 0.00093 | 0.00205 | 0.0067 | 0.000974
ACUAAA | 0 | 0.00192 | 0 | 0
ACGGUG | 0.0129 | 0 | 0.00202 | 0.00111
CCAACA | 0.00681 | 0.00369 | 0 | 0.00121
ACUCGG | 0.00544 | 0 | 0.00275 | 0
ACAUAU | 0.00128 | 0 | 0.000635 | 0
UCGGUC | 0.000495 | 0.00103 | 0.00897 | 0.00228
GCAAAA | 0 | 0.00411 | 0.00127 | 0.00436
ACGAUC | 0.00744 | 0 | 0.00204 | 0.000754
GCCAGA | 0.000627 | 0.00131 | 0.0011 | 0.000692
CCUACU | 0.00113 | 0 | 0.000962 | 0.00084
CCUUGC | 0 | 0.00148 | 0.00246 | 0
UCUAUG | 0 | 0.00395 | 0.00058 | 0
UCCUCC | 0 | 0.00188 | 0 | 0
GCGCAU | 0.000907 | 0 | 0.000509 | 0
CCCGUA | 0.00487 | 0.0014 | 0 | 0

Sequence | m5C methylation level at the target C [1] | m5C methylation level at the target C (parent substrate: substrate #2) | m5C methylation level at the target C (parent substrate: substrate #3) | m5C methylation level at the target C (parent substrate: substrate #4)
GCAACA | 0 | 0 | 0.00132 | 0
CCCGUC | 0.00169 | 0.0023 | 0.00109 | 0
GCGCGC | 0.0126 | 0.00107 | 0.00146 | 0.000688
CCUUUU | 0.00281 | 0.000943 | 0 | 0.00225
GCUUUC | 0.00138 | 0.00282 | 0.00501 | 0.0015
ACUGGC | 0.000873 | 0 | 0.00231 | 0.000837
ACAUCU | 0.000527 | 0.00107 | 0.00351 | 0
CCAGCU | 0 | 0.00223 | 0 | 0.00275
CCUAAG | 0 | 0 | 0.000684 | 0
ACCUAU | 0.00115 | 0.00188 | 0.00236 | 0
CCAAUU | 0.000821 | 0 | 0.00735 | 0.00145
GCCGUU | 0.00111 | 0.00506 | 0.0013 | 0.00733
CCUGCC | 0.00149 | 0.00173 | 0.00163 | 0.00047
ACGAUG | 0.000456 | 0 | 0.000347 | 0.000735
ACAUAG | 0.00136 | 0 | 0.000311 | 0.000789
ACAGGC | 0.0047 | 0 | 0.00049 | 0
GCCGGU | 0.000697 | 0.00211 | 0.00325 | 0.00363
ACAAUU | 0 | 0.00131 | 0 | 0

3 records drawn at random from those above:
Sequence | m5C methylation level at the target C [1] | m5C methylation level at the target C (parent substrate: substrate #2) | m5C methylation level at the target C (parent substrate: substrate #3) | m5C methylation level at the target C (parent substrate: substrate #4)
GCUUUC | 0.00138 | 0.00282 | 0.00501 | 0.0015
CCAGCU | 0 | 0.00223 | 0 | 0.00275
CCCGUC | 0.00169 | 0.0023 | 0.00109 | 0

From the supplement of paper PMC8288183
